Experimental data from patent US8957114B2, “Formulations, salts and polymorphs of transnorsertraline and uses thereof” (Sunovion Pharmaceuticals Inc., priority 2009, dated 2015).
Some of these results come from one statement about several compounds together. Some compounds share one range, which may span the group rather than tell each member.

Test: VTI moisture sorption isotherm (hygroscopicity)
Assay type: physicochemical
Settings: from 25 to 95% RH
Experimental: Each salt was analyzed by coulometric titration using an EM Scientific Aquastar C3000 titrator to determine water content. […] Each salt was analyzed using a Perkin Elmer TGA 7 Thermal Gravimetric Analyzer (TGA). […] Moisture sorption isotherms for each salt were generated using the VTI SGA-100 Symmetric Vapor Sorption Analyzer. Samples were run as received without pre-analysis drying. Equilibrium criteria were the lesser of 0.01 wt % change in 5 minutes or 180 minutes at each relative humidity (RH) step. […] Analysis was repeated for each sample in consecutive analyses (sample was not removed from analyzer). Sample sizes ranged from 18 mg to 35 mg.

Row | Substance | moisture uptake (VTI)
1 | Citrate | 2.7 to 17.3%
2 | L-tartrate | 2.7 to 17.3%
